For part of these data: For at least one compound, name, drawing or mass did not settle the structure. Some results were stated once for a whole list of compounds, not compound by compound.
Assays:
[1] = system: PC3-M cells; test: Cell invasion assay, compounds 21-48; type: cell-based, human; details: 10 μM of compound
Method: Assays were conducted using methods as described in Craft et al. (2008, Mol. Pharmocol., 73(1):235-242; herein incorporated by reference in its entirety).
(§1) The anti-metastatic activity of compounds 21-26 was tested using the procedure of Example 2. Specifically, PC3-M cells were treated with 10 μM of compound (for invasion, FIG. 11) or a range of concentrations (for growth inhibition, FIG. 12). For invasion, values are the mean±SD number of invading cells, as a percent of untreated controls, from N=3 separate assays run at different times (each assay was in replicates of N=4). Cell viability was determined by MTT assay as recited in Kyle et al., Mol. Pharmacol, 51(2):193-200 (1997); herein incorporated by reference in its entirety. Values are the mean±SD of N=2 separate assays run at different times (N=3 for each assay), and are the percent of untreated controls.
as §1, with “31-38” for “21-26”, “13)” for “11)”, “14).” for “12).”
as §1, with “41-48” for “21-26”, “15)” for “11)”, “16).” for “12).”

[2] = system: PC3-M human prostate cancer cells; test: 3-day growth inhibition MTT assay; type: cell-based; details: range of concentrations
Method: PC3-M human prostate cancer cells were treated with different concentrations of the indicated compound, and then MTT reduction as an indicator of cell viability was measured according to the method of Example 9.
as §1
as §1, with “31-38” for “21-26”, “13)” for “11)”, “14).” for “12).”
as §1, with “41-48” for “21-26”, “15)” for “11)”, “16).” for “12).”

[3] = system: ER promoter-luciferase reporter vector construct; test: ER promoter-luciferase reporter assay in MCF-7 cells; type: cell-based, human; details: 10 nM
Method: The genes were: TFF1 (trefoil factor 1; also known as pS2), PGR (progesterone receptor), and CPSD (cathepsin D). Gene expression was measured by isolating RNA, and performing real time quantitative reverse transcription/polymerase chain reaction (qRT/PCR), using exon spanning primers (purchased from Applied Biosystems). The expression of GAPDH was also measured, and used to normalize the expression of ER responsive genes. Data below are the mean±SD of a single experiment, performed in duplicate. […] Additionally, the ability of compound 46 to activate an ER promoter-luciferase reporter vector construct after transient transfection of the human ER positive breast cancer cell line, MCF-7, was evaluated (FIG. 31). […] “No associated control cells” were transfected with an identical vector construct that lacked the estrogen response element, i.e., noERE.

SMILES	anti-invasion efficacy [1]	cell growth inhibition (MTT) [2]	luciferase activity [3]
O=C1c2ccccc2OCC1c1cccc(Cl)c1 (stereo not drawn) [Compound 42]	anti-invasive efficacy at least equal to that of genistein	no growth inhibitory effects	–
O=C1c2ccccc2OCC1c1ccc(Cl)cc1 (stereo not drawn) [Compound 43]	anti-invasive efficacy at least equal to that of genistein	no growth inhibitory effects	–
O=C1c2ccccc2OCC1c1cccc(F)c1 (stereo not drawn) [Compound 45]	anti-invasive efficacy at least equal to that of genistein	no growth inhibitory effects	–
O=C1c2ccccc2OCC1c1ccccc1F (stereo not drawn) [Compound 44]	anti-invasive efficacy at least equal to that of genistein	no growth inhibitory effects	–
C[C@]12CC[C@@H]3c4ccc(O)cc4CC[C@H]3[C@@H]1CC[C@@H]2O [estridiol, estradiol]	–	–	induced luciferase activity
O=C1c2ccccc2OCC1c1ccc(F)cc1 (stereo not drawn) [Compound 46, 4′-fluoroisoflavanone]	anti-invasive efficacy at least equal to that of genistein	no growth inhibitory effects	–
O=C1c2ccccc2OCC1c1ccccc1Cl (stereo not drawn) [Compound 41, 2′-chloroisoflavanone]	anti-invasive efficacy at least equal to that of genistein	no growth inhibitory effects	–
COc1cccc(-c2coc3ccccc3c2=O)c1 [Compound 47]	anti-invasive efficacy at least equal to that of genistein	no growth inhibitory effects	–

Source: US8742141B2, “Inhibition and treatment of prostate cancer metastasis” (Northwestern University, priority 2008, dated 2014)
